Data as given in PMC6576150.
Results are given in words; binding and its absence hold for the method and conditions named. Binding seen in cells or lysates may run through a third protein. These calls come from enrichment with a bait or labelling near it, and not all partners need be listed.

Protein sequences, listed by entry. Tags and fused reporters are not part of them. Lines headed by an entry give the natural chain unless they say otherwise; changes in a name come on top.
UniProt Q8K4B0: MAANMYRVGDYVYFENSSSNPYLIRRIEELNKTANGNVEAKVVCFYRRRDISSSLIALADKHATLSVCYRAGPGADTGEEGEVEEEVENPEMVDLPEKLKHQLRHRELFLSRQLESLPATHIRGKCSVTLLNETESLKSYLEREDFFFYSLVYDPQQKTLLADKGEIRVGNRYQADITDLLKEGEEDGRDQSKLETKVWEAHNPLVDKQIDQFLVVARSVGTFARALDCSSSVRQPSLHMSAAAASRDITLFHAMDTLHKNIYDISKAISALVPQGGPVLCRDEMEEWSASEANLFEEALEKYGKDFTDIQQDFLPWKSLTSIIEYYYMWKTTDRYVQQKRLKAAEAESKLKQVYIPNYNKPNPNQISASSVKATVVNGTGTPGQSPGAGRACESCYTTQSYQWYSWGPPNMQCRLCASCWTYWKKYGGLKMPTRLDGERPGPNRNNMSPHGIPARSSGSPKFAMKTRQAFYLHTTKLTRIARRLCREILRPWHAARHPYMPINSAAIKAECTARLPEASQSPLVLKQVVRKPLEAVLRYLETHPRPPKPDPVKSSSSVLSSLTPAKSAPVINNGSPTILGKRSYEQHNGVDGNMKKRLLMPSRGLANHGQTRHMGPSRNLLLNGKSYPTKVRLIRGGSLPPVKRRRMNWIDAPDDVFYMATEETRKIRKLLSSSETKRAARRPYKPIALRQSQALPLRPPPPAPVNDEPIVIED
UniProt Q9R190: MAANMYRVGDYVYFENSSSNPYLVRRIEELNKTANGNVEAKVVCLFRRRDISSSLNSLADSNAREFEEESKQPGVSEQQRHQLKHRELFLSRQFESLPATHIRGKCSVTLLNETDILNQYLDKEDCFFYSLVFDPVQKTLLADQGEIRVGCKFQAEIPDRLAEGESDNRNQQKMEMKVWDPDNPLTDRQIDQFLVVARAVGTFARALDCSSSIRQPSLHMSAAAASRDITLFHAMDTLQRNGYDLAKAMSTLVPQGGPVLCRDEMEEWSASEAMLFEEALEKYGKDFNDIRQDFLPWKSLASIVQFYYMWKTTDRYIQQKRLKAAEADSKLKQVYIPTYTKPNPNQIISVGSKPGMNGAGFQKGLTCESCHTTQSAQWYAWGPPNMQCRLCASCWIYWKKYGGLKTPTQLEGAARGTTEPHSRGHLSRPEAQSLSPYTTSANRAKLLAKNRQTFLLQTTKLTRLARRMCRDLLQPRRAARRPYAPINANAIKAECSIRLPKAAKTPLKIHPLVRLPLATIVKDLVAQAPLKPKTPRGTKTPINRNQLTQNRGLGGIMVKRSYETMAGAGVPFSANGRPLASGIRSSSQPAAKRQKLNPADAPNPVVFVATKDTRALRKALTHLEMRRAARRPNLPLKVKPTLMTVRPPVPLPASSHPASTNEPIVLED
UniProt Q6PDQ2: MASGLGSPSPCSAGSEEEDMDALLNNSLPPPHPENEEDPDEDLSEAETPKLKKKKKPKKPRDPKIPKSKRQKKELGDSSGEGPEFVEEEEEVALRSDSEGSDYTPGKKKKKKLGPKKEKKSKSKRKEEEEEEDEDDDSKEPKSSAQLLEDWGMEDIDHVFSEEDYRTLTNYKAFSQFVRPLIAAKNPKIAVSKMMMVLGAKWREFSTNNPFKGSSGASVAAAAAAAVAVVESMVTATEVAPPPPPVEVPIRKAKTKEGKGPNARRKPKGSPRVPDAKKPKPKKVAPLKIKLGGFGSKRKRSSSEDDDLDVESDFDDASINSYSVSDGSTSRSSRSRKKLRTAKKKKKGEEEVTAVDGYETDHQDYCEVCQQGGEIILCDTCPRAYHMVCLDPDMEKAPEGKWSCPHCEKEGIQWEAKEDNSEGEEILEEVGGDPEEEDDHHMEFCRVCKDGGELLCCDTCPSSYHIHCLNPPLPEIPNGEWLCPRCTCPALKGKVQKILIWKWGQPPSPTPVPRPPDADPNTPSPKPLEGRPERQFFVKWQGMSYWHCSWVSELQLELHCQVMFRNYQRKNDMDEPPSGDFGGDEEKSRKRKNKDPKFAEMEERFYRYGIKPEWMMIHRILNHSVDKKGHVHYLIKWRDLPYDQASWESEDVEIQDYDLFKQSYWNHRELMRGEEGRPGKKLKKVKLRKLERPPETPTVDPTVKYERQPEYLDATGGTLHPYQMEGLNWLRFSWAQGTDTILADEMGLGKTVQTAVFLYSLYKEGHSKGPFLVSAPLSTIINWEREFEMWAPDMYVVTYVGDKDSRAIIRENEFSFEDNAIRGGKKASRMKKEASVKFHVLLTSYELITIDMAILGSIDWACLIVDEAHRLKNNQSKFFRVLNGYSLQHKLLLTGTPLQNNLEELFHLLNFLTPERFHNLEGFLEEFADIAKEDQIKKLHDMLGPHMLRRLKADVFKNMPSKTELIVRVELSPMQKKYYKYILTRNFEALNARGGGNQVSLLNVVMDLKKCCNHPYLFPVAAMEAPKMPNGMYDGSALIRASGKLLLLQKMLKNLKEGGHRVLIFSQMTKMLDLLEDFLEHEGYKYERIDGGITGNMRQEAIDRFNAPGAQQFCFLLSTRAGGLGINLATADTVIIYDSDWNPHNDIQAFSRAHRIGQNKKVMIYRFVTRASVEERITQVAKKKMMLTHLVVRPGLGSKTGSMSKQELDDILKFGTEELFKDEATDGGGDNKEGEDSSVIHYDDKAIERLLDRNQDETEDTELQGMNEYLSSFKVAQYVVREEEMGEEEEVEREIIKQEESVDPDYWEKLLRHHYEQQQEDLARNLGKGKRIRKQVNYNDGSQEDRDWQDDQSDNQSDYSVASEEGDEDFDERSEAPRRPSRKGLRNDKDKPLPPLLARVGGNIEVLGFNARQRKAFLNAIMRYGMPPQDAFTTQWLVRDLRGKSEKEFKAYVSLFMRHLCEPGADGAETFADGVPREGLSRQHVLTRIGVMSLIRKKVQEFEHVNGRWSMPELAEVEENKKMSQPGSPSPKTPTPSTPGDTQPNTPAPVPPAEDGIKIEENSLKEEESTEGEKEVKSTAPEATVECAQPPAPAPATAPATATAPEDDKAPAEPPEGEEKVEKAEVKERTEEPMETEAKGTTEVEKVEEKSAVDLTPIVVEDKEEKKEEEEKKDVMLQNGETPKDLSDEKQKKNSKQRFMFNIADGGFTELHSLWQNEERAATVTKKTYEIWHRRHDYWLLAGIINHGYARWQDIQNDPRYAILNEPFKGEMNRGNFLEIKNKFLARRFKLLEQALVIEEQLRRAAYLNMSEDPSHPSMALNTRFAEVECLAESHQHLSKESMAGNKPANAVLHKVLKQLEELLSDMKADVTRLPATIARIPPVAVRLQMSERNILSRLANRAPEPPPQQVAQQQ
UniProt Q8CHY6: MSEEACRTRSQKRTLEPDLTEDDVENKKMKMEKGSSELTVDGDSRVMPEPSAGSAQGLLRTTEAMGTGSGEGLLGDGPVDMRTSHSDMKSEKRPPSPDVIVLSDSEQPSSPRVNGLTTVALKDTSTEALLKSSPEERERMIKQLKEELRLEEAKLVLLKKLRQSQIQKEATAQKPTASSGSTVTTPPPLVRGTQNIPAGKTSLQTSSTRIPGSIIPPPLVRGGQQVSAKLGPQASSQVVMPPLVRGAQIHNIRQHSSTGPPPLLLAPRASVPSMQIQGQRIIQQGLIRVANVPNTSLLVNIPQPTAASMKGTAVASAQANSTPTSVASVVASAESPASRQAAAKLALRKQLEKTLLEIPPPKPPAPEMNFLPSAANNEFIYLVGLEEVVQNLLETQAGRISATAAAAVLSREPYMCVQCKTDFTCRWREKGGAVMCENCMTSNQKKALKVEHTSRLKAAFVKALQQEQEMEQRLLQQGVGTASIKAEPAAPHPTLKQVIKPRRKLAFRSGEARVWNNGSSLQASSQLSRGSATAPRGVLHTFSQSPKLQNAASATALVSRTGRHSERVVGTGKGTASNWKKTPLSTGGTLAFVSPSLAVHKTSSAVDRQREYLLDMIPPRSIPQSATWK
UniProt O09106: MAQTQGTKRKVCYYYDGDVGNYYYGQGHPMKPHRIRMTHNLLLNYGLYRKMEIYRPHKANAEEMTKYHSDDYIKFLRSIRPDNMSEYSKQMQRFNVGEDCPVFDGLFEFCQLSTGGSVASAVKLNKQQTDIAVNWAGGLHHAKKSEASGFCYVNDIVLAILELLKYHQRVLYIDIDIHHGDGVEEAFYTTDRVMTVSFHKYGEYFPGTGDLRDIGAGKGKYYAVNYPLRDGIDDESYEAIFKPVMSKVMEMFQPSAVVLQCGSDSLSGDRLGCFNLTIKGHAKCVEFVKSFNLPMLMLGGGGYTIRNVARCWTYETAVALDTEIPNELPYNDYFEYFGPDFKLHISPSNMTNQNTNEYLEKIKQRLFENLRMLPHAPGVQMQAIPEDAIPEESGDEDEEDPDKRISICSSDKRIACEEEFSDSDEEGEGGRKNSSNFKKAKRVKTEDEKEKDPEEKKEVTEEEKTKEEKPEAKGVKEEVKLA
UniProt B7ZCR6: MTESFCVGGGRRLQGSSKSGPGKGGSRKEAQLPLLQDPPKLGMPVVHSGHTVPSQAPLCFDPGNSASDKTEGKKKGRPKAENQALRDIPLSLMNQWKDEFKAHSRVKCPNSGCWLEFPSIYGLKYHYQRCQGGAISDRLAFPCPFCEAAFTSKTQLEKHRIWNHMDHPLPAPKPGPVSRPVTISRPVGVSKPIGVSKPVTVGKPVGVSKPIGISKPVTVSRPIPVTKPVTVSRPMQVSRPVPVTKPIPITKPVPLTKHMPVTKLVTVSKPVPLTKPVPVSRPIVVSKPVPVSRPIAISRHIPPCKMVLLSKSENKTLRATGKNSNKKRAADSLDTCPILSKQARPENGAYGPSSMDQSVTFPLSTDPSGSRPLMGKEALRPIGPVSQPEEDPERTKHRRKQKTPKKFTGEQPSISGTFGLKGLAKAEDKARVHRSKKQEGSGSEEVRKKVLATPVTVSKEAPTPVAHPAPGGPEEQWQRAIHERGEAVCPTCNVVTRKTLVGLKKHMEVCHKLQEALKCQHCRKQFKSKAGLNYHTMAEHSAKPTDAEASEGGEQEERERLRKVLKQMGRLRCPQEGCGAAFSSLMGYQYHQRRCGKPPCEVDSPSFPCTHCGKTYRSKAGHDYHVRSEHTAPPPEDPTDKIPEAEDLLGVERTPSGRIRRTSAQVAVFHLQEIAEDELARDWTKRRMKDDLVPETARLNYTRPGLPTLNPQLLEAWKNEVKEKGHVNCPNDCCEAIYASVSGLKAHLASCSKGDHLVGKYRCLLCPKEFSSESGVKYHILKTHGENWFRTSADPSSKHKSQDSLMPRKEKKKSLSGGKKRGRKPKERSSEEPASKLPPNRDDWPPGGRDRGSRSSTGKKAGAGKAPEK
UniProt Q8VHR5: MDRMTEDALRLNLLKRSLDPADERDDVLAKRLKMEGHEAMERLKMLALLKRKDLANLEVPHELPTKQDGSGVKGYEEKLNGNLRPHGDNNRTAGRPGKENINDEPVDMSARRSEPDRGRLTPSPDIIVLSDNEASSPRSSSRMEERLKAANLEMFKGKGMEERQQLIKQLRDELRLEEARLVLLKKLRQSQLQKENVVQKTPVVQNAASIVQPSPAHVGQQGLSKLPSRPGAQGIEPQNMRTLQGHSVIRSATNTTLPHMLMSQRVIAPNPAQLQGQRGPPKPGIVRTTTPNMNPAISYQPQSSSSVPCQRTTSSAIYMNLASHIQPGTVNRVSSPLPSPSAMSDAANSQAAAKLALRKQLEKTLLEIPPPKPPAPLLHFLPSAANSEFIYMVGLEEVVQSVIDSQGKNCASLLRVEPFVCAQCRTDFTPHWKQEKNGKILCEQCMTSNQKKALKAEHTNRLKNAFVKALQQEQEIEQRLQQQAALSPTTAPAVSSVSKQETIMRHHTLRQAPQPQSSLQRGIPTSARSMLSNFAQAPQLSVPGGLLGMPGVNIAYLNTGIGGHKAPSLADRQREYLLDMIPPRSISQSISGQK
UniProt P70288: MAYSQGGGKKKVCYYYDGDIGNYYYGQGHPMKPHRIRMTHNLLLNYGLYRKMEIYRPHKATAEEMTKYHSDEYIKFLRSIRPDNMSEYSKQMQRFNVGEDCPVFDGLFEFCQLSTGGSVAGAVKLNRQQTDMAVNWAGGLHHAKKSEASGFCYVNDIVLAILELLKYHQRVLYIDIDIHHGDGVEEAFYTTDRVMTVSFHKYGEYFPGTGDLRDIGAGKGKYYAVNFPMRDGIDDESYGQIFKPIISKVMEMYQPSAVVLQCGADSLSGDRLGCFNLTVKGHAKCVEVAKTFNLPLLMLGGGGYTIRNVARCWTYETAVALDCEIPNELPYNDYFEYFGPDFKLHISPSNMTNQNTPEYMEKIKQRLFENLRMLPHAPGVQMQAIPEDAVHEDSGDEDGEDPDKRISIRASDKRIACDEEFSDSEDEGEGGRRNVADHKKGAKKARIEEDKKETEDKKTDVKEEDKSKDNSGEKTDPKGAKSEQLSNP

What was measured:
Assay in all cases: affinity purification with mass spectrometry; 2 mg ES cell nuclear extract with GFP-Trap or FLAG-sepharose beads, 50 μg/ml ethidium bromide, Buffer C (300 mM NaCl, 20 mM HEPES/KOH pH 7.9, 20% glycerol, 2 mM MgCl2, 0.2 mM EDTA), 0.1% NP-40; on-bead digestion; label-free quantitative LC-MS/MS, triplicate; wild-type cells, repeated in Mbd3-null cells
[1] = target: Mta1-Avi-3xFLAG (mouse (endogenous in ES cells)) (UniProt Q8K4B0)
[2] = target: Mta2-GFP (mouse (endogenous in ES cells)) (UniProt Q9R190)
[3] = target: Mta3-Avi-3xFLAG (mouse (endogenous in ES cells))

| Molecule | binding [1] | binding [2] | binding [3] |
| --- | --- | --- | --- |
| Chd4 (from UniProt Q6PDQ2 1-1915) | binds | binds |  |
| Gatad2a (from UniProt Q8CHY6 1-629) | binds |  |  |
| Hdac1 (from UniProt O09106 1-482) | binds | binds |  |
| Mbd2 (from UniProt Q9Z2E1 1-414) | binds | binds |  |
| Mta2 (from UniProt Q9R190 1-668) | binds |  |  |
| Zfp512b (from UniProt B7ZCR6) |  | binds |  |
| Pwwp2a (protein, UniProt Q69Z61 1-730) MAAVAAEAAATAASPGEGGAGEAEPELEPIPGSEAGTPLPVTATEAAVPDGEADGRQSAPQADEQPLPPPPPPPPPGELADSSEAEEAKPPEPAAVPVSPPEQPPAAPEQPEDAPRPPPAPALVPPAGGDSAVSHLIPGSEVRVTLDHIIEDALVVSFRLGEKLFSGVLMDLSKRFGPHGIPVTVFPKREYKDKPDAMQLQSTTFQEGIEVKQEVNGAVPDDLSPVPPPERLWASKPPPLFHEGAPYPPPLFIRDTYNQSIPQPPPRKIKRPKRKMYREEPTSIMNAIKLRPRQVLCDKCKNSVVAEKKEIRKGSSDSSRYEDKKRRNDSVATVNKKLKTDHKVDGKNQNESQRRNTVVRVSSIAHSRGRVVKVSAQANTSKAQLNTKKVLQSKNMDHAKAREVLKIAKEKAQKKQSETSTSKTAHAKVHFTRRYQSPSSGSLPPRVRLKPQRYRNEENDSSLKTGLEKIRSGKLAPKPQSRCTSTRSAGEAPSEKPSPSEGPEESAGEVQDTSRVRVPGEQEELRMLGKKGSKSSISVYLTLNQETSDSSSASVCSIDSMDDLKSSNSECSSSESFVFPPGCMHAPSASSTSTSFSSKEENSLRNSLKMKIFSKNVSKCITPDGRTICVGDIVWAKIYGFPWWPARILTITVSRKDNGLLARQEARISWFASPTTSSLALSQLSPFLENFQLRFNKKRKGLYRRAITEAAKAAKQLTPEVRALLTQFET | binds |  |  |
| Cdk2ap1 (protein, UniProt O35207 1-114) MSYKPNLTAHMPAAALNAGSVHSPSTSMATSSQYRQLLSDYGPPSLGYTQGTGNSQVPQSKYAELLAIIEELGKEIRPTYAGSKSAMERLKRGIIHARSLVRECLAETERNARS | binds | binds | binds |
| Zfp296 (protein, UniProt E9Q6W4 1-445) MSRRKAGRVPRRVDPDTDTDIEMPDLVMDVKPDLDLRSLAQGPWIARDMPISDVKRQLQTASRPLGAPSTCAPRMPLSSKSSDRQPWTDKHPDLLTCGRCGKIFPLGAIIAFMDHKKQGCQLLQVSDPISESKELKALSCLQCGRQYTSPWKLLCHAQWDHGLCIYQTQHLDTPEAPLLGLAEVAAAMSAVAVVAPVESKPPPVSSAARRSPTCDVCKKTLSSFSNLKVHMRSHTGERPYSCDQCSYACAQSSKLNRHKKTHRQLAPGSPSTSASSRGVSPAAPPEPAAYAAAPASTLPSQTVEKAGAAATAGVQEPGAPGSGAQGGPGFVGWGAPAKVERTDPVKIEKTAPRKSHGPGGKCEFCGKSFTNSSNLTVHRRSHTGERPYTCDQCPYACAQSSKLNRHRRTHGLGTGKTVKCPHCLVPFGLQATLDKHLRQKHPEMA | binds | binds | binds |

The remaining lines, values ahead:

| binding [1] | binding [2] | binding [3] | Molecule |
| --- | --- | --- | --- |
| binds | binds |  | Gatad2b (from UniProt Q8VHR5 1-594) |
| binds | binds |  | Hdac2 (from UniProt P70288 1-488) |
|  | binds |  | Mta1 (from UniProt Q8K4B0 1-715) |
|  | binds |  | Zfp219 (protein, UniProt Q6IQX8 1-726) MEGSRPRILVGHLEPSPPAFDGELDLQRYSNGPGVSGTPGPGSPGMGAVGWSETRAGERRFPCPVCGKRFRFNSILALHLRAHPGAQAFQCPHCGHRAAQRALLRSHLRTHQPERPRSPAARLLLELEERALLREARLGRARSSGGMQSSPAAEGLARPQVPSSSAFRCPFCKGKFRTSAERERHLHILHRPWKCSLCSFGSSQEEELLHHSLTAHGASERPLAATSTPEPPPPPQQEPRSALEPEPEPEPRPEPDREANPAPTPAPPEEPPAPPEFRCQVCGQSFTQSWFLKGHMRKHKASFDHACPVCGRCFKEPWFLKNHMKVHTSKLGPLRAPGPGSAPARAPQPPDLSLLAYEPLGPALLLAPAPAPAERREPPSLLGYLSVRAGEVRPNGEGADPGGGRSYGGFRPLPSALPNRARRHRTEEPEEEEEVVEAEEESWARGRSLGSLTSLHPNPGEGSGQPAPAAGTQARSTATQEENGLLVGGTRSEAGRGATGKDCPFCGKSFRSAHHLKVHLRVHTGERPYKCPHCDYAGTQSGSLKYHLQRHHREQRSSAGPGPPPEPPPPSQRGSLQPQSGAKPTQASATWVEGTASTRPPSSSTGPGSRRKPASPGRTLRNGRGGEAEPLDLSLRAGPGGEAGAGGALHRCLFCPFATGAPELMALHLQVHHSRRARGRRQPRADTSPTYVRAPSGETPPSPPLEEEGSPGLSRSGEAGLGGQER |
